{"sequences": {"note": "The chains behind the UniProt entries cited, without tags or fusion partners.", "UniProt O09106": "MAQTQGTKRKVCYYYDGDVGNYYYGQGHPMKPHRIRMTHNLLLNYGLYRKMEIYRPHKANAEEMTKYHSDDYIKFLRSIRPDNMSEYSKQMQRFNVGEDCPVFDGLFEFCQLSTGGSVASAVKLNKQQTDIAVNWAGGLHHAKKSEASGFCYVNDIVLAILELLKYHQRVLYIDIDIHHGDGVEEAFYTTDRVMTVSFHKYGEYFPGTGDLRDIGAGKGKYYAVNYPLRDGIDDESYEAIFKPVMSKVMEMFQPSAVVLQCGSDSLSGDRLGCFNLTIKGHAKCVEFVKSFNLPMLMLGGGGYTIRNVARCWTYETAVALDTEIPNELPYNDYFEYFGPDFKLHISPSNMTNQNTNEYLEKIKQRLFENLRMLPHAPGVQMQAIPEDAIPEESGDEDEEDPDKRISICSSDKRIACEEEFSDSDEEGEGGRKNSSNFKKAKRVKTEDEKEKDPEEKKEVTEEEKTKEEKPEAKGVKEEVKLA", "UniProt Q13547": "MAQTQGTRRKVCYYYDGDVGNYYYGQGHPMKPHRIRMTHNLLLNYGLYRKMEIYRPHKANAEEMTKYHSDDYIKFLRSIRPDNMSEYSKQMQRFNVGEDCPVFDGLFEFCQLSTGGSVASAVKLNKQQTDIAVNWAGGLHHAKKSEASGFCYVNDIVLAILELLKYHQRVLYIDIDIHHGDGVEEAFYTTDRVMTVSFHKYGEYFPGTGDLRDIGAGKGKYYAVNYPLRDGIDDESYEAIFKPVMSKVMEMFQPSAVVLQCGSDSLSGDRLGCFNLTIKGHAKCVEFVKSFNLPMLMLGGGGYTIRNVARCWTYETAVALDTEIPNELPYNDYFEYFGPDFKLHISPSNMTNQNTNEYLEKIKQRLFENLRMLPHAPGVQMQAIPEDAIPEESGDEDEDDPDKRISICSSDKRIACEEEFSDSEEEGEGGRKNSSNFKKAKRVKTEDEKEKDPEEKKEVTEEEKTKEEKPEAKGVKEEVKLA"}, "source": "paper PMC3395697", "key": {"[1]": {"target": "T1, MYC epitope tagged human ING2 (ΔLZ), lacking amino acids 1 to 23 (leucine zipper motif) (human) (UniProt Q9H160)", "T1 sequence": "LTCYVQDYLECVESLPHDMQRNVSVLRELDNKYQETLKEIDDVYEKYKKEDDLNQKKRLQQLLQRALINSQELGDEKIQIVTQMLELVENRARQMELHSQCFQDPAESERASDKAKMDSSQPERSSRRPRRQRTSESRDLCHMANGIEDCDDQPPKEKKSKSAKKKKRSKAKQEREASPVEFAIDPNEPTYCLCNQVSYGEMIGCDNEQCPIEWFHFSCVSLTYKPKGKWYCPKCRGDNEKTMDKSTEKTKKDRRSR", "experiment": "co-IP; lysates of co-transfected 293T cells; ING2 immunoprecipitated by its tag (anti-MYC in Figure 5A, anti-FLAG in Figure 5B), partner detected by blot of its tag"}, "[2]": {"target": "T2, MYC epitope tagged wild type human ING2 (human) (UniProt Q9H160)", "T2 sequence": "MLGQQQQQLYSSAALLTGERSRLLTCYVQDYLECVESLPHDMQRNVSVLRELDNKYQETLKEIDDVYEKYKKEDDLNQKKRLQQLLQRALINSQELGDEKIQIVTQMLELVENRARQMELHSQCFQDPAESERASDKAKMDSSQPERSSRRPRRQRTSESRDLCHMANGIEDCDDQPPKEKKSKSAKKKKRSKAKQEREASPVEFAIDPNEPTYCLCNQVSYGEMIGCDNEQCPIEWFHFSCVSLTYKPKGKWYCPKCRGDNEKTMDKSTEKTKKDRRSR", "experiment": "co-IP; lysates of co-transfected 293T cells; ING2 immunoprecipitated by its tag (anti-MYC in Figure 5A, anti-FLAG in Figure 5B), partner detected by blot of its tag"}, "[3]": {"target": "T3, FLAG/tagged ING2 expressed in C2C12 cells (human) (UniProt Q9H160)", "T3 sequence": "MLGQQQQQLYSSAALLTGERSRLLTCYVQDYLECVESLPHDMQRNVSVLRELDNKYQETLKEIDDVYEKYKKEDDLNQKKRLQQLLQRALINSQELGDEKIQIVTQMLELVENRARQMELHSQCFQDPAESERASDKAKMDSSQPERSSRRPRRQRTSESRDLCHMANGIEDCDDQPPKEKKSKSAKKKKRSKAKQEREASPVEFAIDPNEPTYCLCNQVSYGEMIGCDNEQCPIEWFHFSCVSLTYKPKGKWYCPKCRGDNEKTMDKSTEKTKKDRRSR", "experiment": "co-IP; sequential: lysates of C2C12 cells transfected with FLAG/ING2; anti-FLAG immunoprecipitation, FLAG peptide elution, immunoprecipitation of the eluate with mouse anti-Sin3A antibody or mouse anti-IgG control; blots for ING2, HDAC1, Sin3A"}, "[4]": {"target": "T4, endogenous Sin3A of C2C12 myoblasts (mouse (endogenous in C2C12)) (UniProt Q60520)", "T4 sequence": "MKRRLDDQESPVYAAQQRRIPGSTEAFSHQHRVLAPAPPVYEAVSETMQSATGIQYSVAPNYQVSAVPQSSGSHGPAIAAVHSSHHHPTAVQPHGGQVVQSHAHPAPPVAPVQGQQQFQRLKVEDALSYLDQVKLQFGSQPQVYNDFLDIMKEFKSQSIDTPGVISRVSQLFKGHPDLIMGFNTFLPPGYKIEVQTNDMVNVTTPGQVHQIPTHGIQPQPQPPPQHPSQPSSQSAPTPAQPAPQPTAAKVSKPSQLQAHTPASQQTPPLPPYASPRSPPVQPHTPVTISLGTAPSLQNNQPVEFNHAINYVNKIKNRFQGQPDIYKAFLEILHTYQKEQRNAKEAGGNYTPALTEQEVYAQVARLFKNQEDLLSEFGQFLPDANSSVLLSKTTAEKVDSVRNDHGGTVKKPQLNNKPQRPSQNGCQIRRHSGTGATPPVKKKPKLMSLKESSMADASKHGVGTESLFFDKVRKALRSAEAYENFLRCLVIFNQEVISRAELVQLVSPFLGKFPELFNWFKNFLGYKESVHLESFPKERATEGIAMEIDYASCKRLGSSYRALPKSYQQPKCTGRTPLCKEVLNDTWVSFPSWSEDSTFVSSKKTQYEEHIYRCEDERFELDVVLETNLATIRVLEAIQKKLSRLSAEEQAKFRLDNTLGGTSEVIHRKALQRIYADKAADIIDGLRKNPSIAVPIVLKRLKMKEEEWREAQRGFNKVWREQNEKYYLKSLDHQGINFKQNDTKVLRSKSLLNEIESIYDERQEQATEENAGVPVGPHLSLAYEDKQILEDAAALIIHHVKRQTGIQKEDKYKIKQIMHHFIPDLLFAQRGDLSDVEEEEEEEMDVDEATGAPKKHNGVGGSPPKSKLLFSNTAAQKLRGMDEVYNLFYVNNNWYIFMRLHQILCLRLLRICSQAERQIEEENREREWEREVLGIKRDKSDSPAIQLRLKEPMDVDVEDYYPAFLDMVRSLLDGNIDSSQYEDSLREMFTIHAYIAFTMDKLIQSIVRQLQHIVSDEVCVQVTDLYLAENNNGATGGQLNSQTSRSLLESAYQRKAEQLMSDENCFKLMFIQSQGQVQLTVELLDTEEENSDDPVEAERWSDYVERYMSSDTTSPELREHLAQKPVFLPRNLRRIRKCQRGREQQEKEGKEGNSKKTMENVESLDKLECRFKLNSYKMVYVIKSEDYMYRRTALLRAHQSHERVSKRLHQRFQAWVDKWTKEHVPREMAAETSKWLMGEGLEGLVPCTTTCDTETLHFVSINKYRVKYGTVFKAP", "experiment": "co-IP; sequential: lysates of C2C12 cells transfected with FLAG/ING2; anti-FLAG immunoprecipitation, FLAG peptide elution, immunoprecipitation of the eluate with mouse anti-Sin3A antibody or mouse anti-IgG control; blots for ING2, HDAC1, Sin3A"}, "[5]": {"target": "endogenous HDAC1 of C2C12 myoblasts (mouse (endogenous in C2C12)) (UniProt O09106)", "experiment": "co-IP; lysates of C2C12 cells in growth media or one day in differentiation media; endogenous HDAC1 (Figure 5C) or Sin3A (Figure 5D) immunoprecipitated, irrelevant antibody as control; blots for ING2, Sin3A, HDAC1"}, "[6]": {"target": "T4, endogenous Sin3A of C2C12 myoblasts (mouse (endogenous in C2C12))", "experiment": "co-IP; lysates of C2C12 cells in growth media or one day in differentiation media; endogenous HDAC1 (Figure 5C) or Sin3A (Figure 5D) immunoprecipitated, irrelevant antibody as control; blots for ING2, Sin3A, HDAC1"}, "FLAG-tagged HDAC1": {"target": "FLAG-tagged HDAC1 (UniProt Q13547)", "experiment": "co-IP; sequential: lysates of 293T cells transfected with MYC-ING2, MYC-Sin3A and FLAG-HDAC1; anti-FLAG immunoprecipitation, FLAG peptide elution, Sin3A immunoprecipitation of the eluate; blots for ING2, HDAC1, Sin3A"}, "MYC-tagged Sin3A": {"target": "T5, MYC-tagged Sin3A (UniProt Q96ST3)", "T5 sequence": "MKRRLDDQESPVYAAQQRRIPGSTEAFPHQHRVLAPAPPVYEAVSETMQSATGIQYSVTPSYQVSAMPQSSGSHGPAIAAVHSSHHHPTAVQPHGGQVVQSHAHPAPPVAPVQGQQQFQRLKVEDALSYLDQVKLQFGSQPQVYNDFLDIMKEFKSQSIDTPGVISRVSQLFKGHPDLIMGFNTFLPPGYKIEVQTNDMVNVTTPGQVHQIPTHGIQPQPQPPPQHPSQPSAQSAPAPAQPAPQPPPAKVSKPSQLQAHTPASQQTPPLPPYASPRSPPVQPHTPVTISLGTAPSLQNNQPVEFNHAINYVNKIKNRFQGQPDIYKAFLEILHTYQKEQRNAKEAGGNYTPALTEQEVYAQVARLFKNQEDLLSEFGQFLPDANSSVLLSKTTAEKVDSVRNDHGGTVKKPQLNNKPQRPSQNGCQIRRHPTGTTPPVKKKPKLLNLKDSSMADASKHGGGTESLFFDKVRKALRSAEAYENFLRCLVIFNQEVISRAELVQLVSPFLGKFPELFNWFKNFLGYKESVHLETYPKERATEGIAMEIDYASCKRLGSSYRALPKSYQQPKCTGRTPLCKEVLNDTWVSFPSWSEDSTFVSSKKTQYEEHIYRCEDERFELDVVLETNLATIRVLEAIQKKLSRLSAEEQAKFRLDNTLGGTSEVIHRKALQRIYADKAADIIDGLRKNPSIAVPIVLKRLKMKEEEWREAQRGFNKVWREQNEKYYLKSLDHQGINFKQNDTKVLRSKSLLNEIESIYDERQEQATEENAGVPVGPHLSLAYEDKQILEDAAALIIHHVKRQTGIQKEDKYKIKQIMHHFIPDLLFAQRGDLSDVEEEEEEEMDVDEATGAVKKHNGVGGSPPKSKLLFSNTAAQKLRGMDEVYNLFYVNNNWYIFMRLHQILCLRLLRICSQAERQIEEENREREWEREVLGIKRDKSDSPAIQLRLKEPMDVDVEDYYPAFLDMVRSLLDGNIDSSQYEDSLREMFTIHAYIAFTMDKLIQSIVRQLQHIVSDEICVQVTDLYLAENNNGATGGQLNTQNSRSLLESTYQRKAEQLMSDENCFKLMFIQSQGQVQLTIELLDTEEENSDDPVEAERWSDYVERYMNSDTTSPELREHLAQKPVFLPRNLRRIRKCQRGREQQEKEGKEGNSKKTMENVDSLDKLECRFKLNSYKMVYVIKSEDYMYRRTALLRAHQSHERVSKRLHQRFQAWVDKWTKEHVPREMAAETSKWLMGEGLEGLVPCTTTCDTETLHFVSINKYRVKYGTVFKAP", "experiment": "co-IP; sequential: lysates of 293T cells transfected with MYC-ING2, MYC-Sin3A and FLAG-HDAC1; anti-FLAG immunoprecipitation, FLAG peptide elution, Sin3A immunoprecipitation of the eluate; blots for ING2, HDAC1, Sin3A"}}, "note": "No constants are given. Whether binding was seen depends on the method and setting. Binding seen in cells or lysates may run through a third protein. Some binding calls cover weakened binding; strength is not graded here. For part of these data: Where a sequence is shown, tags or fusion partners need not be part of it.", "data": [{"molecule": "FLAG-tagged HDAC1 (from UniProt Q13547 1-482) (enzyme)", "values": [{"measurement": "binding", "setting": "[1]", "value": "binds"}, {"measurement": "binding", "setting": "[2]", "value": "binds"}]}, {"molecule": "endogenous HDAC1 of C2C12 myoblasts (from UniProt O09106 1-482) (enzyme)", "values": [{"measurement": "binding", "setting": "[3]", "value": "binds"}, {"measurement": "binding", "setting": "[4]", "value": "binds"}]}, {"molecule": "endogenous Sin3A of C2C12 myoblasts (protein, UniProt Q60520 1-1274) MKRRLDDQESPVYAAQQRRIPGSTEAFSHQHRVLAPAPPVYEAVSETMQSATGIQYSVAPNYQVSAVPQSSGSHGPAIAAVHSSHHHPTAVQPHGGQVVQSHAHPAPPVAPVQGQQQFQRLKVEDALSYLDQVKLQFGSQPQVYNDFLDIMKEFKSQSIDTPGVISRVSQLFKGHPDLIMGFNTFLPPGYKIEVQTNDMVNVTTPGQVHQIPTHGIQPQPQPPPQHPSQPSSQSAPTPAQPAPQPTAAKVSKPSQLQAHTPASQQTPPLPPYASPRSPPVQPHTPVTISLGTAPSLQNNQPVEFNHAINYVNKIKNRFQGQPDIYKAFLEILHTYQKEQRNAKEAGGNYTPALTEQEVYAQVARLFKNQEDLLSEFGQFLPDANSSVLLSKTTAEKVDSVRNDHGGTVKKPQLNNKPQRPSQNGCQIRRHSGTGATPPVKKKPKLMSLKESSMADASKHGVGTESLFFDKVRKALRSAEAYENFLRCLVIFNQEVISRAELVQLVSPFLGKFPELFNWFKNFLGYKESVHLESFPKERATEGIAMEIDYASCKRLGSSYRALPKSYQQPKCTGRTPLCKEVLNDTWVSFPSWSEDSTFVSSKKTQYEEHIYRCEDERFELDVVLETNLATIRVLEAIQKKLSRLSAEEQAKFRLDNTLGGTSEVIHRKALQRIYADKAADIIDGLRKNPSIAVPIVLKRLKMKEEEWREAQRGFNKVWREQNEKYYLKSLDHQGINFKQNDTKVLRSKSLLNEIESIYDERQEQATEENAGVPVGPHLSLAYEDKQILEDAAALIIHHVKRQTGIQKEDKYKIKQIMHHFIPDLLFAQRGDLSDVEEEEEEEMDVDEATGAPKKHNGVGGSPPKSKLLFSNTAAQKLRGMDEVYNLFYVNNNWYIFMRLHQILCLRLLRICSQAERQIEEENREREWEREVLGIKRDKSDSPAIQLRLKEPMDVDVEDYYPAFLDMVRSLLDGNIDSSQYEDSLREMFTIHAYIAFTMDKLIQSIVRQLQHIVSDEVCVQVTDLYLAENNNGATGGQLNSQTSRSLLESAYQRKAEQLMSDENCFKLMFIQSQGQVQLTVELLDTEEENSDDPVEAERWSDYVERYMSSDTTSPELREHLAQKPVFLPRNLRRIRKCQRGREQQEKEGKEGNSKKTMENVESLDKLECRFKLNSYKMVYVIKSEDYMYRRTALLRAHQSHERVSKRLHQRFQAWVDKWTKEHVPREMAAETSKWLMGEGLEGLVPCTTTCDTETLHFVSINKYRVKYGTVFKAP", "values": [{"measurement": "binding", "setting": "[3]", "value": "binds"}]}, {"molecule": "endogenous ING2 of C2C12 myoblasts (protein, UniProt Q9ESK4 1-281) MLGQQQQQQLYSSAALLTGERSRLLSCYVQDYLECVESLPHDMQRNVSVLRELDNKYQETLKEIDDVYEKYKKEDDSNQKKRLQQHLQRALINSQELGDEKIQIVTQMLELVENRARQMELHSQCFQDPAESERASDKSKMDSSQPERSSRRPRRQRTSESRDLCHMTNGIDDCDDQPPKEKRSKSAKKKKRSKAKQEREASPVEFAIDPNEPTYCLCNQVSYGEMIGCDNEQCPIEWFHFSCVSLTYKPKGKWYCPKCRGDNEKTMDKSTEKTKKERRAR", "values": [{"measurement": "binding", "setting": "[5]", "value": "binds"}, {"measurement": "binding", "setting": "[6]", "value": "binds"}]}, {"molecule": "MYC epitope tagged wild type human ING2 (protein, UniProt Q9H160 1-280) MLGQQQQQLYSSAALLTGERSRLLTCYVQDYLECVESLPHDMQRNVSVLRELDNKYQETLKEIDDVYEKYKKEDDLNQKKRLQQLLQRALINSQELGDEKIQIVTQMLELVENRARQMELHSQCFQDPAESERASDKAKMDSSQPERSSRRPRRQRTSESRDLCHMANGIEDCDDQPPKEKKSKSAKKKKRSKAKQEREASPVEFAIDPNEPTYCLCNQVSYGEMIGCDNEQCPIEWFHFSCVSLTYKPKGKWYCPKCRGDNEKTMDKSTEKTKKDRRSR", "values": [{"measurement": "binding", "setting": "FLAG-tagged HDAC1", "value": "binds"}, {"measurement": "binding", "setting": "MYC-tagged Sin3A", "value": "binds"}]}]}
